PubChem BioAssay AID686937 | Drosophila RNAi Screening Center, 2013

Test: 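Genes in the fly needed for secretion of protein constitutively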 (primary screen)
System: Drosophila S2 cells expressing secreted horseradish peroxidase
Reagents: long dsRNA against Drosophila genes
Timing: about 5.5 days (5 days dsRNA, then 12 h reporter induction)
Treatment: reporter expression induced after 5 days of dsRNA, read 12 h later; inducer not stated
Measured: 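Chemiluminescent measurement of peroxidase in the medium 12 h after reporter induction, following 5 days of dsRNA, given as a z-score per plate; higher means more secretion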
Scale: z-score: higher = more reporter secreted into medium
The deposit covers about 23,000 reagents; this is a random part of those with a known target gene and a result. 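Reduced-secretion tags in replicate 1 do not always agree with the z-scores; no criterion for assigning the tags was given.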 A plus sign joins genes that one reagent is predicted to hit. Not all columns of the deposit are shown. The record does not give: the amount of reagent.

z-score, replicate 1, by target gene and reagent
DNaseII (Deoxyribonuclease II): DRSC16310 0.26
CG12974: DRSC11684 0.39
CG44325: DRSC18039 -0.46; DRSC18423 0.03
CG13203: DRSC06327 0.28
Regnase-1 (Regnase 1): DRSC14278 0.31
BCL7-like: DRSC17729 0.27
OtopLa (Otopetrin-like a): DRSC17787 -3.71; DRSC18133 0.41
Alp5 (Alkaline phosphatase 5): DRSC14269 0.31
Mesh1 (Metazoan SpoT homolog-1): DRSC14433 0.48
CG32829: DRSC00961 0.34; DRSC22805 -0.26
Ada (Adenosine deaminase): DRSC14463 0.06
CG7453: DRSC20046 0.32
CG15021: DRSC08475 0.2
Culd (CUB and LDLa domain): DRSC10262 0.5
Ids (Iduronate 2-sulfatase): DRSC08222 0.28
hwt (heavyweight): DRSC19386 -1.75; DRSC19695 0.47
CG43315: DRSC06296 0.08
CG43075: DRSC19074 0.17
sta (stubarista): DRSC18838 -1.8
alpha-Est8 (alpha-Esterase-8): DRSC12620 0.09
CG10918: DRSC20472 0.35
CG33143: DRSC04151 0.18; DRSC04454 -0.26
Lip2 (Lipase 2): DRSC02577 -0.12; DRSC02578 -0.37
brat (brain tumor): DRSC03497 -0.14
vrs (versager): DRSC15832 0.25
Dys + snoRNA:Me18S-A1374: DRSC16232 -0.47
CG9014: DRSC01979 0.47
ncd (non-claret disjunctional): DRSC17012 0.14
CG13658: DRSC14659 0.28
CG1288: DRSC12538 0.04
CG6912: DRSC16132 0.09
CysRS-m (Cysteinyl-tRNA synthetase, mitochondrial): DRSC07129 0.54
IFT57 (Intraflagellar transport 57): DRSC00720 -0.09
CG17233: DRSC10259 -2.35
CG16749: DRSC15146 0.42
eEF1gamma (eukaryotic translation elongation factor 1 gamma): DRSC16659 -2.19
CG18088: DRSC02654 0.39
CG12523: DRSC09895 0.53
CG2070: DRSC06814 -0.17
CG14042 + SP555: DRSC02367 0.37; DRSC03428 0.33
Mnn1 (Menin 1): DRSC03368 -0.01
Syx8 (Syntaxin 8): DRSC10402 0.49; DRSC22498 0.05
CG11638: DRSC18167 0.45; DRSC18640 0.34
CG4709: DRSC02772 0.44
grsm (granny smith): DRSC14165 0.4; DRSC14843 0.26
CR32511 (pseudo): DRSC20697 0.7
Crag: DRSC18454 0.26
CG5435: DRSC02860 0.02
flr (flare): DRSC09787 0.22
CG15237: DRSC04971 0.13
Spn43Ad (Serpin 43Ad): DRSC06770 0.09
CR31292 (pseudo): DRSC13120 0.48
CG15143: DRSC02444 0.29
Ccp84Ag: DRSC12592 0.47; DRSC22085 0.07
Cht7 + tRNA:Cys-GCA-1-4 + tRNA:Lys-CTT-1-13: DRSC08021 0.68
GlyRS (Glycyl-tRNA synthetase): DRSC10711 0.13
CG17065: DRSC20544 0.29
Ptp4E (Protein tyrosine phosphatase 4E): DRSC18701 0.75
CG14096: DRSC10099 0.34
JMJD6 (Jumonji domain containing 6): DRSC15787 -0.04
Rbpn-5 (Rabaptin-5): DRSC04440 0.54
CG34409: DRSC14577 0.25; DRSC21667 -0.31
tipE (temperature-induced paralytic E): DRSC08738 0.29
Trf (TBP-related factor): DRSC03462 -0.03
ArfGAP1 (ADP-ribosylation factor GTPase activating protein 1): DRSC11173 0.19
bru3 (bruno 3): DRSC09280 0.4; DRSC09291 -0.06; DRSC09292 0.03; DRSC09687 0.25; DRSC09887 0.02; DRSC22732 0.31

Taken from above.
For “z-score, replicate 1”, GlyRS (Glycyl-tRNA synthetase) [DRSC10711] shows 0.13
Under “z-score, replicate 1”, vrs (versager) [DRSC15832] has 0.25
CG17233 [DRSC10259], z-score, replicate 1 = -2.35
Under “z-score, replicate 1”, CG14042 + SP555 [DRSC03428] reads 0.33
Value for CG33143 [DRSC04151] in “z-score, replicate 1”: 0.18
Result for CG17065 [DRSC20544] under “z-score, replicate 1”: 0.29
